Here are results for 1 molecule from publication PMC5577323, “Oxidant sensor in the cGMP-binding pocket of PKGIα regulates nitroxyl-mediated kinase activity” (Scientific Reports, 2017).

In this experiment the target is endogenous PKGIα, mouse (mouse (endogenous in mesenteric arteries and cremaster muscle)) (UniProt P0C605). Briefly: cross-linking; interprotein disulfide in endogenous PKGIα of mouse mesenteric vessels (NCA or AS in vitro) and cremaster muscle (50 µmol/L NCA or AS in vivo); homogenates in non-reducing Laemmli buffer with maleimide, SDS-PAGE, western blot for PKGIα.

Results are given in words; binding and its absence hold for the method and conditions named. In cells and extracts the contact can be indirect. Some results given as binding are weak or reduced against the parent protein; the word gives no strength.

B1: endogenous PKGIα, mouse (enzyme, UniProt P0C605 1-671)
chain: MSELEEDFAKILMLKEERIKELEKRLSEKEEEIQELKRKLHKCQSVLPVPSTHIGPRTTRAQGISAEPQTYRSFHDLRQAFRKFTKSERSKDLIKEAILDNDFMKNLELSQIQEIVDCMYPVEYGKDSCIIKEGDVGSLVYVMEDGKVEVTKEGVKLCTMGPGKVFGELAILYNCTRTATVKTLVNVKLWAIDRQCFQTIMMRTGLIKHTEYMEFLKSVPTFQSLPDEILSKLADVLEETHYENGEYIIRQGARGDTFFIISKGQVNVTREDSPSEDPVFLRTLGKGDWFGEKALQGEDVRTANVIAAEAVTCLVIDRDSFKHLIGGLDDVSNKAYEDAEAKAKYEAEAAFFANLKLSDFNIIDTLGVGGFGRVELVQLKSEESKTFAMKILKKRHIVDTRQQEHIRSEKQIMQGAHSDFIVRLYRTFKDSKYLYMLMEACLGGELWTILRDRGSFEDSTTRFYTACVVEAFAYLHSKGIIYRDLKPENLILDHRGYAKLVDFGFAKKIGFGKKTWTFCGTPEYVAPEIILNKGHDISADYWSLGILMYELLTGSPPFSGPDPMKTYNIILRGIDMIEFPKKIAKNAANLIKKLCRDNPSERLGNLKNGVKDIQKHKWFEGFNWEGLRKGTLTPPIIPSVASPTDTSNFDSFPEDSDEPPPDDNSGWDIDF
modifications: inter- and intradisulfide after HNO donors
As for B1, the binding entry is listed as “binds”.
